The values that follow come from the supplement of paper PMC11006884.

Chains of the proteins cited; added tags and fusions are not shown. Lines headed by an entry give the natural chain unless they say otherwise; changes in a name come on top.
UniProt Q7Z4G1, whole entry: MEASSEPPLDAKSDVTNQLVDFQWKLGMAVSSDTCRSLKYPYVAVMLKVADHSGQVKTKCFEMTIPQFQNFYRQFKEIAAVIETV
UniProt Q7Z2Z2: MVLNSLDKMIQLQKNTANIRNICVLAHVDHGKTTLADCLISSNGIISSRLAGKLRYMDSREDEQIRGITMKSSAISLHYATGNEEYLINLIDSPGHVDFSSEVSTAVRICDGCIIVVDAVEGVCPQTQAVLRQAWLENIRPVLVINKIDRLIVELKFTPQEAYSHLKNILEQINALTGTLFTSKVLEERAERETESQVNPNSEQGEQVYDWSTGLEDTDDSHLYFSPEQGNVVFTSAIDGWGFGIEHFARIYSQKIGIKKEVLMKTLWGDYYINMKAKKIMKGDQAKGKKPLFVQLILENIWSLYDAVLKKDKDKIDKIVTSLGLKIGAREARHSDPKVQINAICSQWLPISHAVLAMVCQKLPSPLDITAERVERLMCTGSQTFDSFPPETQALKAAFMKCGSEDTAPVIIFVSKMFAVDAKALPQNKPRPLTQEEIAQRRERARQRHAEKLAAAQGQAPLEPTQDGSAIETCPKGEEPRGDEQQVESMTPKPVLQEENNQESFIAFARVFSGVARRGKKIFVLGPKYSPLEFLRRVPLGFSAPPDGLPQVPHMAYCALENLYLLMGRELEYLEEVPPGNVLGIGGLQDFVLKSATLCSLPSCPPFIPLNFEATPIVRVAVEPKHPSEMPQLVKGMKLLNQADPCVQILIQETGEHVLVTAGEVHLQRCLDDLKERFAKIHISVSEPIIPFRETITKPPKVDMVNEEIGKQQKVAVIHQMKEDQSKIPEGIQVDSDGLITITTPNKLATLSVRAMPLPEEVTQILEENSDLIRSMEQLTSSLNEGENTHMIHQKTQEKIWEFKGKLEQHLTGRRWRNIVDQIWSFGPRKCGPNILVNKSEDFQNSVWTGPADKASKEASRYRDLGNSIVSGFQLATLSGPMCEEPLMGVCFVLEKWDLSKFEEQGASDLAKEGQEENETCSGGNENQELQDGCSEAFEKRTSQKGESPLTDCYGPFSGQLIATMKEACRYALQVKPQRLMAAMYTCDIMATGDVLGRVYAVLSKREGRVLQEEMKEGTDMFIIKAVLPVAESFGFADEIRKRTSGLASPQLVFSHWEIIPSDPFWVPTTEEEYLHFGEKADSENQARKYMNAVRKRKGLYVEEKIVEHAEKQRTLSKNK
UniProt Q8IZ69: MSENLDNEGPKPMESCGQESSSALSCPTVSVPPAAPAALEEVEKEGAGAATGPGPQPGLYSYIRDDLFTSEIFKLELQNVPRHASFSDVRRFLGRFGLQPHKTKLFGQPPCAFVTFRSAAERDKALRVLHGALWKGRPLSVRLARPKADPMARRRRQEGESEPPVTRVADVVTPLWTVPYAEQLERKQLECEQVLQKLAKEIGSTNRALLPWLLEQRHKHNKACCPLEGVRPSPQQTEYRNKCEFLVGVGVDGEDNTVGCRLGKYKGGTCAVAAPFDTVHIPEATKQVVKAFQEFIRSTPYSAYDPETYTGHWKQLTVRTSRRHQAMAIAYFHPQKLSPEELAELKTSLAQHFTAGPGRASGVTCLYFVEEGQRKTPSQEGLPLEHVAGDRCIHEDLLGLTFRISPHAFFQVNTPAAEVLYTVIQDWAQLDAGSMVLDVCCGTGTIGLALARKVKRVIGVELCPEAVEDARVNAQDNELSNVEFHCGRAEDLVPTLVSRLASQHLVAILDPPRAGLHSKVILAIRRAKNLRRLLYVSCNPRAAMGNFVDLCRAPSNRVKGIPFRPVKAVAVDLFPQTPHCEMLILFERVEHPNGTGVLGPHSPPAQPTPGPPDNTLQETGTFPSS
UniProt Q8IYB7: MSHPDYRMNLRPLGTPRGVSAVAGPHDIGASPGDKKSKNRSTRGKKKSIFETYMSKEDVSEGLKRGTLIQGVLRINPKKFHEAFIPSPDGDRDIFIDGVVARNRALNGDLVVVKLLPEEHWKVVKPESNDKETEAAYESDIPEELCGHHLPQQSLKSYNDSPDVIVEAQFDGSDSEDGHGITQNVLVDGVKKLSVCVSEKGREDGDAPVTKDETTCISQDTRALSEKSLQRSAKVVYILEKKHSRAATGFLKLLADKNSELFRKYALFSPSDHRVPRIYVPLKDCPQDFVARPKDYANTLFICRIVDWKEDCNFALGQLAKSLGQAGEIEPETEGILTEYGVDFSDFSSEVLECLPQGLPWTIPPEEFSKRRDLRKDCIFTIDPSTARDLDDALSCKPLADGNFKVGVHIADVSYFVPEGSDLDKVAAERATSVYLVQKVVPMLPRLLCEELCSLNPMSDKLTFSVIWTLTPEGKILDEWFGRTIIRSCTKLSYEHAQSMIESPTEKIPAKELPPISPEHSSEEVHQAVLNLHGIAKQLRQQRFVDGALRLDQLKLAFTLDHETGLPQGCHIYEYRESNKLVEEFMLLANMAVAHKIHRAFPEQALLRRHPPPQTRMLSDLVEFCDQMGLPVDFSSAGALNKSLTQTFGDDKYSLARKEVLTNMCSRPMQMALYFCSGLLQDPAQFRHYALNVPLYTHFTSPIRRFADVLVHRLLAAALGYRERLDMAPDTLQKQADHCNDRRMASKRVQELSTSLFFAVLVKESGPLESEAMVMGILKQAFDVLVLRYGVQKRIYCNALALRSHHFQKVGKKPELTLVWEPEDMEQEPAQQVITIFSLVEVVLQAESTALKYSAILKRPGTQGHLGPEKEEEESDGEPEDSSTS
UniProt Q8IU81: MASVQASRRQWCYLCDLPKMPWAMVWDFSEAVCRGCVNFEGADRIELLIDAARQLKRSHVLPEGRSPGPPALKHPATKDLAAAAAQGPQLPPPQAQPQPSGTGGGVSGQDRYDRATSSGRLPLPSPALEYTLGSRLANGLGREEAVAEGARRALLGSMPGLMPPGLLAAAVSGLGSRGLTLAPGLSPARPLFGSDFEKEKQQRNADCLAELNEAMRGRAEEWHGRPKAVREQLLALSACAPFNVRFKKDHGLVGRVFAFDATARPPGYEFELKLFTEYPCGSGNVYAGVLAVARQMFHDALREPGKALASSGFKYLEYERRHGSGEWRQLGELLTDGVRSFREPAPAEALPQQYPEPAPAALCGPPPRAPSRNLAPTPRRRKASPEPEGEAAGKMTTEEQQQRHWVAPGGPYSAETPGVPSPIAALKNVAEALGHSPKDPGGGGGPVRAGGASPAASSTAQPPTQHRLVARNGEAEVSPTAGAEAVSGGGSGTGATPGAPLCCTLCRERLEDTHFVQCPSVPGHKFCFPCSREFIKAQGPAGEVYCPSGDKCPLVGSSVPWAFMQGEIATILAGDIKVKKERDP
UniProt Q86W42: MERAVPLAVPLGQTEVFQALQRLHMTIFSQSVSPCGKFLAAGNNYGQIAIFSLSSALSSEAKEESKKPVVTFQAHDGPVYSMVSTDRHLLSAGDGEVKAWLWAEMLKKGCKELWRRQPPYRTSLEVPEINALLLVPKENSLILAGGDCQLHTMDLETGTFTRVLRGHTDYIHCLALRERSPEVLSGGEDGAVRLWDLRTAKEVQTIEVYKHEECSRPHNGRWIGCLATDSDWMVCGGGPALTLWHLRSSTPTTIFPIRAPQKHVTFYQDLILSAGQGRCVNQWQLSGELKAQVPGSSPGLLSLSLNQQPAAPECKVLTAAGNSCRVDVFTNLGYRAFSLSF
UniProt Q8IUD2: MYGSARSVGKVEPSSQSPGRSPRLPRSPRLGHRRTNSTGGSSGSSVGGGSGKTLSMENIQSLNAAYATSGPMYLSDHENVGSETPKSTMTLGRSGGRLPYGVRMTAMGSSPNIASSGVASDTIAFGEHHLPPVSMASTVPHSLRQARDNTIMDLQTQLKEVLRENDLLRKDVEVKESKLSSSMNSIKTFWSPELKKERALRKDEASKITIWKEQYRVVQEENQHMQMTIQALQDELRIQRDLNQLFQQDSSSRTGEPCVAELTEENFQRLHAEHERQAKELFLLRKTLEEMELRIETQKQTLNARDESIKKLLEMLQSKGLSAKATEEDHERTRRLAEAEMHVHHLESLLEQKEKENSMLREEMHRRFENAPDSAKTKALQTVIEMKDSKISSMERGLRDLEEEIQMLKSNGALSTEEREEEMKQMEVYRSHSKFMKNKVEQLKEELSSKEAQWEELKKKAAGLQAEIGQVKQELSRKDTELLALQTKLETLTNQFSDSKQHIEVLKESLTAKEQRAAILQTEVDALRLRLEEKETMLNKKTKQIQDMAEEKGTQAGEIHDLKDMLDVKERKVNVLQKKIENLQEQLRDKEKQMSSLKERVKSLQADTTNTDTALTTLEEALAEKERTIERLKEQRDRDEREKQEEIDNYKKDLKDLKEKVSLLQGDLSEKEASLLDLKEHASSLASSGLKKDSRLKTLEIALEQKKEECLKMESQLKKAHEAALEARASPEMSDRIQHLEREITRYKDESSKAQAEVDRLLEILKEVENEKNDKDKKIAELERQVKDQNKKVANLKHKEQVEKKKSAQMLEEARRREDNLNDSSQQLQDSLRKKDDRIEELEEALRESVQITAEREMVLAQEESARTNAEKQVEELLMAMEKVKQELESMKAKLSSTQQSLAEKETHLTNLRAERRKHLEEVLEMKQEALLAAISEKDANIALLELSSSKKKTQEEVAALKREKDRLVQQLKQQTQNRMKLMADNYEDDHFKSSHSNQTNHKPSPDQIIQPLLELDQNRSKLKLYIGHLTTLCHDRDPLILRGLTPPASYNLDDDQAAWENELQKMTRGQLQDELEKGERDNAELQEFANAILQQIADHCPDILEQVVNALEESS
UniProt Q8IX12: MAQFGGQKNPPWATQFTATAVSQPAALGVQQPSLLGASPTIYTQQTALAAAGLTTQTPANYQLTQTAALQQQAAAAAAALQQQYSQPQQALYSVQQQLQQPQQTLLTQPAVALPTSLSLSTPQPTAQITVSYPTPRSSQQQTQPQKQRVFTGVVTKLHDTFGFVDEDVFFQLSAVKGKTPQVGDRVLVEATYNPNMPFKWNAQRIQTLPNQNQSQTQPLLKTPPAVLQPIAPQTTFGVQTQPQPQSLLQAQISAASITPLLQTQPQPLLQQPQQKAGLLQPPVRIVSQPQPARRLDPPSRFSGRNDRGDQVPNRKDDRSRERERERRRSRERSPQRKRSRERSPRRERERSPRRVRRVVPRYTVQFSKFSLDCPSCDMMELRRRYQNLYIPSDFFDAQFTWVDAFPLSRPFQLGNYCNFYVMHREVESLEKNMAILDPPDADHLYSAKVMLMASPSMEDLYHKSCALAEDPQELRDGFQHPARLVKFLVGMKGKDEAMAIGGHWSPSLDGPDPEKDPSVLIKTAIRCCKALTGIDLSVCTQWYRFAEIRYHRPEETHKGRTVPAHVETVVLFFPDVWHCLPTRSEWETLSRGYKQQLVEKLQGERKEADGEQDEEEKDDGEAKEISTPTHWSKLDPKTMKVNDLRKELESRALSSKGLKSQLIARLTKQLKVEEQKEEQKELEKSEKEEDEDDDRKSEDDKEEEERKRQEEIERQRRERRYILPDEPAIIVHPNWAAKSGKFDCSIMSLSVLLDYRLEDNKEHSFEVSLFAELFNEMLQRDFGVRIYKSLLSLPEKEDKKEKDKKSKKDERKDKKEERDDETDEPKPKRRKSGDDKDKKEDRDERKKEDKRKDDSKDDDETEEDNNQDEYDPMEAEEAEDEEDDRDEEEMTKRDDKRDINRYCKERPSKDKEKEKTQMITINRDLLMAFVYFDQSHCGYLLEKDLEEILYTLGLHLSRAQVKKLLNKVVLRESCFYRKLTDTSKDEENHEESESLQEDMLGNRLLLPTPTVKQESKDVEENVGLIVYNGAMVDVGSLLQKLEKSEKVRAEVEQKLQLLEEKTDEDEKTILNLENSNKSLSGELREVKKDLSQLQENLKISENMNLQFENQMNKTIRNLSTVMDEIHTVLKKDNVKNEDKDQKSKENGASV
UniProt Q86XN8: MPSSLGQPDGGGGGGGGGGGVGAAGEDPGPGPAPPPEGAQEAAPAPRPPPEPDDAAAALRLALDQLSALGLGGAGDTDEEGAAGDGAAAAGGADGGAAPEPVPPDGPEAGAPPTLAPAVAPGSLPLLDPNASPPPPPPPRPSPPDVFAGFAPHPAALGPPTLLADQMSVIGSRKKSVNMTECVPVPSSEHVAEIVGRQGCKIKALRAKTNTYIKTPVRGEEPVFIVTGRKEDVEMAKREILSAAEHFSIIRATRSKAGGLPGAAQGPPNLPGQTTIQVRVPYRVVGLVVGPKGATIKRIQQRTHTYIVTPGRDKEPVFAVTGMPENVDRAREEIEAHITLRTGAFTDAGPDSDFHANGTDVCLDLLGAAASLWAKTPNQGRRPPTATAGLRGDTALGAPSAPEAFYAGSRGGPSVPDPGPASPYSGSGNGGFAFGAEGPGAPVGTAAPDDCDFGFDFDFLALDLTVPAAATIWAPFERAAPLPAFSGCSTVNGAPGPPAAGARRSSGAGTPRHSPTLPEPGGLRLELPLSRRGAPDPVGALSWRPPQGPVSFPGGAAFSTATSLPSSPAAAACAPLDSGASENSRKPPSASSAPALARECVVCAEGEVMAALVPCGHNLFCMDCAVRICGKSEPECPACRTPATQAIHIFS

This is a selection; strong and weak results do not stand in their true shares. The data scatter; read single values as rough.

Compound in the test: COC(=O)/C=C/c1ccccc1 [methyl cinnamate]
The test is described as follows: log2 ratio of iodoacetamide-alkyne labeling of the cysteine site, DMSO over compound (competition); higher = stronger covalent engagement of the cysteine by the compound, active = 1 or more. The following applies: 500 µM; treatment time 1 h; system: HEK293T cell lysate. In short, it runs like this: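 After 1 h at ambient temperature with vehicle or electrophile (500 µM), HEK293T lysate (2 mg/mL) was labelled for 1 h with iodoacetamide alkyne and clicked to sCIP-TMT reagents. Pooled samples were trypsin-digested overnight at 37 °C, streptavidin-enriched, acid-eluted and analysed by Orbitrap Eclipse LC-MS/MS with FAIMS, then quantified in FragPipe over three replicates with duplicate channels. A cysteine's log2 competition ratio is its mean control-channel over mean compound-channel reporter intensity. Cysteines quantified in only one replicate were not included.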
For COMMD6 C60 (UniProt Q7Z4G1), the “log2 ratio of iodoacetamide-alkyne labeling” value (shortened to “log2 ratio”) is inactive: 0.207. Under SMC5 C881 (UniProt Q8IY18) stands inactive: 0.153; under UniProt Q7Z2Z2_C599, inactive: -0.126. Turning to TRMT2A C270 (UniProt Q8IZ69), the “log2 ratio” value is inactive: 0.073.

Turning to RBBP6 C27 (UniProt Q7Z6E9), the “log2 ratio” value was inactive: 0.284. As for UniProt Q7Z2T5_C656, the figure is inactive: 0.29; as for ANKHD1 C777 (UniProt Q8IWZ3), inactive: -0.142.

On to HUWE1 C3259 (UniProt Q7Z6Z7), for which the “log2 ratio” value was inactive: 0.57. Under CAND1 C356 (UniProt Q86VP6) stands inactive: 0.18; under USP48 C54 (UniProt Q86UV5), inactive: -0.0926. On to IRF2BP2 C40 (UniProt Q7Z5L9), for which the “log2 ratio” value is inactive: -0.0254.

Take DIS3L2 C216 (UniProt Q8IYB7): the “log2 ratio” value was inactive: 0.411. As for MICAL3 C1760 (UniProt Q7RTP6), the figure is inactive: 0.0974. With FASTKD5 C525 (UniProt Q7L8L6), the “log2 ratio” value was inactive: -0.0786. Under TSEN54 C338 (UniProt Q7Z6J9) stands inactive: 0.193; under IRF2BP1 C363 (UniProt Q8IU81), inactive: 0.279. As for DDX42 C281 (UniProt Q86XP3), the figure is inactive: 0.251; as for PBRM1 C50 (UniProt Q86U86), inactive: -0.27. Under UniProt Q7Z5K2_C293 stands inactive: 0.0204.

For the target UniProt Q86YR5_C616, the “log2 ratio” value is inactive: 0.285. As for THOC6 C279 (UniProt Q86W42), the figure is inactive: 0.275. CYFIP1 C1088 (UniProt Q7L576): the “log2 ratio” value was inactive: -0.0483. As for ERC1 C258 (UniProt Q8IUD2), the figure is inactive: 0.146; as for ALDH16A1 C350 (UniProt Q8IZ83), inactive: 0.0866. Under CAND1 C413 (UniProt Q86VP6) stands inactive: 0.393; under UniProt Q86Y56_C365, inactive: -0.053. As for SUPT6H C527 (UniProt Q7KZ85), the figure is inactive: 0.044.

For ASRGL1 C115 (UniProt Q7L266), the “log2 ratio” value was inactive: -0.322. As for CCAR1 C579 (UniProt Q8IX12), the figure is inactive: 0.00252; as for UniProt Q8IX01_C947, inactive: -0.0655; as for MEX3D C362 (UniProt Q86XN8), inactive: 0.0241. As for RPUSD2 C246 (UniProt Q8IZ73), the figure is inactive: -0.234; as for DCP2 C395 (UniProt Q8IU60), inactive: 0.507; as for MAEA C61 (UniProt Q7L5Y9), inactive: 0.00227.

Take RPAIN C175 (UniProt Q86UA6): the “log2 ratio” value was inactive: 0.0438. In the case of PHF6 C280 (UniProt Q8IWS0), the “log2 ratio” value is inactive: -0.178. Take DCP2 C391 (UniProt Q8IU60): the “log2 ratio” value was inactive: 0.507.
